From US10159725B2 (priority 2010, dated 2018)

assay: general procedure: Fmoc solid-phase peptide synthesis; details: whole synthesis, rel. area %, acetate

Sequence | final HPLC purity
AYLVYTDRL (listed as Homo sapiens) | 94.4%
FYISPVNKL (listed as Homo sapiens) | 98.6%
HYKPTPLYF (listed as Homo sapiens) | 90.7%
LYQILQGIVF (listed as Homo sapiens) | 94.8%
NYLLYVSNF (listed as Homo sapiens) | 96.3%
NYLPFIMEL (listed as Homo sapiens) | 95.1%
SYIDVLPEF (listed as Homo sapiens) | 96.0%
SYIIDPLNL (listed as Homo sapiens) | 97.1%
SYNPLWLRI (listed as Homo sapiens) | 92.5%
VWSDVTPLIF (VWSDVTPLTF; listed as Homo sapiens) | 96.1%
VYIEKNDKL (listed as Homo sapiens) | 99.1%
YYNAAGFNKL (listed as Homo sapiens) | 97.3%

Where a sequence shows no end group, the ends are not given.
